Among all 320,000 compounds or so, about 22,000 (6.9%) were called active. The shares of active, inactive and inconclusive entries below differ from those in the screen. The call rests on the fitted dose curve; in most records, active means well fitted inhibition curve with a large enough effect; inconclusive means small, poorly fitted or top-dose-only effect, or another doubt; inactive means no such curve, though single readings can be large or run the other way. A potency beside an inconclusive call is a rough fit, not a confirmed value.
Test: Primary qHTS for delayed death inhibitors of the malarial parasite plastid, 96 hour incubation
Conditions: P. falciparum luciferase reporter growth; series mostly up to 28.7 µM; activity change, negative = inhibition: at the top concentration
Method in brief: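 Luminescence readout: decreased luciferase signal marks inhibited growth of reporter-expressing P. falciparum in infected red cells (2% hematocrit, 0.05% parasitemia final), exposed to compound two generations (96 h, 37 C, 5% CO2).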
For `Cc1ccc(NC(=O)C2OCCc3ccccc32)cc1` (stereo not drawn), the “activity change, negative = inhibition” value was inactive: 47.8%. With `NC(Cc1ccc(O)c([N+](=O)[O-])c1)C(=O)O` (stereo not drawn) the Potency was inconclusive: 9.28 µM [inhibitor, single point]. For `O=C1CN(C(=O)/C=C/c2ccc(Br)cc2)CCN1`, the “activity change, negative = inhibition” value was inactive: 37.6%. With `O=C(CSc1ccc2ccccc2n1)c1ccccc1` the “activity change, negative = inhibition” value was inactive: 67%. In the case of `CC/C(=N\NC(=O)Nc1ccccc1)c1ccccc1`, the Potency is reported as inconclusive: 16.5 µM [inhibitor, partial curve, poor fit]. For `C[C@H](NC(=O)c1nc[nH]c1C(=O)NCc1ccccc1)C(=O)OC(C)(C)C`, the Potency was inconclusive: 1.65 µM [inhibitor, full curve, poor fit]. In the case of `CNc1ccccc1C(C)(C)c1cn(-c2ccc([N+](=O)[O-])cc2)nn1`, the Potency is reported as inconclusive: 13.1 µM [inhibitor, single point]. With `COc1ccc(-c2[nH]ncc2CNCCn2cccn2)c(F)c1` the Potency was active: 13.1 µM. For `COc1ccc(S(=O)(=O)N2CCCN(CC(=O)Nc3ccc4c(c3)OCO4)CC2)cc1`, the Potency was inconclusive: 5.22 µM [inhibitor, partial curve]. In the case of `COc1ccc(NS(=O)(=O)c2cn(C)cn2)c(OC)c1`, the “activity change, negative = inhibition” value is reported as inactive: 9.05%. With `COc1ccccc1C(=O)Nc1ccccc1N1CCN(S(C)(=O)=O)CC1` the “activity change, negative = inhibition” value was inactive: 59.6%. For `O=C(NCc1nnc(SCC(=O)N2CCCc3ccccc32)o1)c1ccco1`, the Potency was inconclusive: 0.294 µM [inhibitor, full curve, poor fit]. In the case of `O=C(NC1CCCCCC1)C1CC(=O)N(Cc2ccccc2)C1` (stereo not drawn), the “activity change, negative = inhibition” value is reported as inactive: 21.2%. In the case of `CCCCCC(=O)NNC(=S)NC(=O)c1cccc([N+](=O)[O-])c1`, the Potency is reported as inconclusive: 1.85 µM [inhibitor, partial curve, poor fit]. In the case of `O=C(NC1CCCC1)c1cc(S(=O)(=O)N2CCOCC2)c(Cl)cc1Cl`, the Potency is reported as active: 4.65 µM. With `O=C(c1cccc(Cl)c1)N1CCN(c2ccc(N3CCOCC3)nn2)CC1` the Potency was inconclusive: 6.57 µM [inhibitor, partial curve, poor fit]. In the case of `O=[N+]([O-])c1ccc(C2C3C(c4ccccc4)=NC4(CCCC4)N32)cc1` (stereo not drawn), the Potency is reported as inconclusive: 18.5 µM [inhibitor, single point]. With `CCCc1cc(=O)[nH]c2nnc(SCC(=O)Nc3nccs3)n12` the Potency was inconclusive: 18.5 µM [inhibitor, single point]. With `O=C(NCCc1c[nH]c2ccccc12)C(=O)c1c[nH]c2ccccc12` the Potency was inconclusive: 18.5 µM [inhibitor, single point]. For `Cc1cc(-c2nn(-c3ccccc3F)cc2CN2CCC(C(N)=O)CC2)c(C)s1`, the Potency was active: 8.28 µM. With `CC[C@@]12C(=O)N(c3cccc(C)c3)C(=O)N1[C@H](c1ccc(Br)cc1)[C@@H]1C(=O)N(C(C)(C)C)C(=O)[C@@H]12` the Potency was active: 2.33 µM. With `Cc1ccc2nc(-c3ccc(N4C(=N)SC5CS(=O)(=O)CC54)cc3)sc2c1` (stereo not drawn) the “activity change, negative = inhibition” value was inactive: -14.3%. With `COc1ccccc1OCC(=O)Nc1ccc(CSc2ccccc2)cc1C` the Potency was inconclusive: 10.4 µM [inhibitor, single point]. With `CCOC(=O)NC(=O)CSc1nc(C)cc(C)c1C#N` the Potency was active: 9.28 µM. For `O=C(Nc1ccccc1Cl)/C(Cl)=C(\Cl)S(=O)c1ccccc1` (stereo not drawn), the Potency was inconclusive: 1.47 µM [inhibitor, full curve]. In the case of `Cc1cccc(OC2CCN(Cc3c(C(=O)N4CCCC4)nc4ccccn34)CC2)c1`, the Potency is reported as inconclusive: 14.7 µM [inhibitor, partial curve, poor fit]. In the case of `NC(=O)c1c(NC(=O)c2ccccc2Cl)sc2c1CCC2`, the Potency is reported as inconclusive: 13.1 µM [inhibitor, partial curve, poor fit]. With `CC1=CC(=O)NS(=O)(=O)O1` the “activity change, negative = inhibition” value was inactive: -9.24%. For `Cc1ccc(NC(=O)CSc2nnc(CNC(=O)c3ccco3)n2C)cc1C`, the Potency was active: 13.1 µM. With `O=c1[nH]c2ccc(S(=O)(=O)N3CCN(C4CCCCC4)CC3)cc2[nH]c1=O` the Potency was inconclusive: 3.29 µM [inhibitor, partial curve, poor fit]. With `COc1ccccc1C(=O)NCCc1nc2ccccc2n1C` the Potency was inconclusive: 4.15 µM [inhibitor, partial curve, poor fit]. In the case of `COc1ccc2oc(=O)c(NC(=O)C3CCCCC3)cc2c1`, the Potency is reported as active: 13.1 µM. For `CCN(CC)S(=O)(=O)c1ccc(N2CCCC2)c(NC(=O)Cc2ccccc2)c1`, the Potency was inconclusive: 7.38 µM [inhibitor, partial curve, poor fit]. With `COC(=O)Cc1c[nH]c2cccc(OCC(O)CN(Cc3ccccc3)C(C)C)c12` (stereo not drawn) the Potency was inconclusive: 11.7 µM [inhibitor, partial curve, poor fit]. For `CSc1nsc(SC)c1C(=O)Nc1ccc(C(C)(C)C)cc1`, the Potency was inconclusive: 3.29 µM [inhibitor, partial curve]. With `CCc1ccc2[nH]c3nc(SCc4nnc(-c5ccc(C)cc5)o4)nnc3c2c1` the Potency was inconclusive: 18.5 µM [inhibitor, single point]. For `COc1cccc(NC(=O)CN(C)C(=O)CCNS(=O)(=O)c2ccc(C)cc2)c1`, the Potency was inconclusive: 18.5 µM [inhibitor, single point]. In the case of `CN(C)Cc1c(C(=O)N/N=C/CCc2ccccc2)nnn1-c1nonc1N`, the “activity change, negative = inhibition” value is reported as inactive: 2.76%. With `COc1ccc(OCC(=O)N/N=C(\C)CC(=O)Nc2ccc(NC(C)=O)cc2)cc1` the Potency was inconclusive: 2.62 µM [inhibitor, partial curve, poor fit]. In the case of `CCn1nc(C)c(/C=N/NC(=O)c2ccc3c(c2)c(C)c(C)n3Cc2ccccc2)c1C`, the Potency is reported as active: 11.7 µM. With `Cc1cc(NC(=O)c2ccc(-c3ccc(F)c(Cl)c3)o2)no1` the activity change, negative = inhibition was inactive: -16.9% [at 5.75 µM]. With `Cc1ccc(/C=N/Nc2ncnc3nc[nH]c23)cc1` the “activity change, negative = inhibition” value was inactive: 11%. In the case of `Cc1cccc(-c2noc(-c3cc4ccccc4oc3=O)n2)c1`, the “activity change, negative = inhibition” value is reported as inactive: 16.3%. For `CC(C)c1ccccc1OCC(=O)N(C)CC(=O)Nc1ccc(F)cc1`, the Potency was inconclusive: 0.104 µM [inhibitor, full curve]. With `CCOc1ccccc1NC(=O)NC(C)c1ccc2c(c1)OCO2` (stereo not drawn) the Potency was inconclusive: 18.5 µM [inhibitor, single point]. For `CCOC(=O)C1CCN(S(=O)(=O)c2ccc3c(c2)N(C(C)=O)CCO3)CC1`, the Potency was inconclusive: 18.5 µM [inhibitor, single point]. With `Cc1ccc(S(=O)(=O)N2CCCC(CCC(=O)NCc3ccccc3F)C2)s1` (stereo not drawn) the Potency was inconclusive: 18.5 µM [inhibitor, single point]. In the case of `O=C(c1ccccc1)C(Cn1cncn1)C(Sc1ccccc1)c1ccccc1` (stereo not drawn), the Potency is reported as inconclusive: 10.4 µM [inhibitor, partial curve, poor fit]. For `CC(C)N1C(=O)/C(=C/C=C/c2ccco2)C(=O)N(Cc2ccco2)C1=O`, the “activity change, negative = inhibition” value was inactive: 3.75%. With `Cc1cc(NC(=O)C2CCCCC2)nc2c1c(=O)oc1ccccc12` the Potency was active: 6.57 µM. In the case of `COc1ccc(CCN(C)C(=O)CSc2nc3ncc(Cl)cc3[nH]2)cc1OC`, the Potency is reported as inconclusive: 18.5 µM [inhibitor, single point]. With `Cc1ccc(Nc2nnc(-c3ccc(N4CCOCC4)c([N+](=O)[O-])c3)c3ccccc23)cc1` the Potency was inconclusive: 18.5 µM [inhibitor, single point]. With `COCCn1c(C)cc(/C=C2/NC(=O)N(c3ccc(Cl)cc3)C2=O)c1C` the Potency was inconclusive: 2.62 µM [inhibitor, partial curve, poor fit]. With `Cc1c(N=Nc2c(O)[nH]c(=S)[nH]c2=O)c(=O)n(-c2ccccc2)n1C` the Potency was inconclusive: 18.5 µM [inhibitor, single point]. With `O=C(C1Cc2ccccc2CN1C(=O)c1ccco1)N1CCN(c2ccccc2)CC1` (stereo not drawn) the Potency was inconclusive: 13.1 µM [inhibitor, partial curve, poor fit]. For `CC(C)CC(=O)N1CCC(N(CCc2ccccc2)Cc2ccccc2)CC1`, the “activity change, negative = inhibition” value was inactive: -19.1%. In the case of `CCOC(=O)C1(CCc2ccccc2)CCN(Cc2cccc3nccnc23)CC1`, the “activity change, negative = inhibition” value is reported as inactive: 23.9%. For `Cc1ccc(C(c2nnnn2CS(=O)(=O)c2ccc(C)cc2)N2CCN(c3ncccn3)CC2)cc1` (stereo not drawn), the Potency was inconclusive: 18.5 µM [inhibitor, single point]. In the case of `O=C(CN1CCN(C(=O)c2cccc(S(=O)(=O)N3CCCC3)c2)CC1)Nc1cccc(F)c1`, the Potency is reported as inconclusive: 5.86 µM [inhibitor, partial curve]. For `O=C(O)CN(c1cccc(C(F)(F)F)c1)S(=O)(=O)c1ccccc1`, the Potency was inconclusive: 10.4 µM [inhibitor, partial curve, poor fit]. For `CC(C)[C@@H](COc1ccccc1)N1CCN(Cc2ccccc2)CCC1=O`, the Potency was active: 6.57 µM. For `N#CC(C#N)=C/C=C(\Nc1ccc(Cl)cc1)c1ccc(Cl)cc1`, the Potency was inconclusive: 18.5 µM [inhibitor, single point]. In the case of `COc1cc(C(c2c(C(=O)O)[nH]c3ccccc23)c2c(C(=O)O)[nH]c3ccccc23)ccc1OCc1ccccc1`, the Potency is reported as active: 13.1 µM. For `Cc1c(C)c2ccc(OCC(=O)Nc3cccnc3)c(C)c2oc1=O`, the Potency was inconclusive: 2.94 µM [inhibitor, partial curve, poor fit]. With `COc1ccc(C(=O)NNC(=S)NC(=O)c2ccc(Br)o2)cc1OC` the “activity change, negative = inhibition” value was inactive: 0.781%. For `CCc1ccc(-c2csc(NC(=O)C3CCCO3)c2C(=O)OC(C)C)cc1` (stereo not drawn), the Potency was inconclusive: 18.5 µM [inhibitor, single point]. In the case of `c1ccc2c(c1)OCC(CNc1ncnc3nc[nH]c13)O2` (stereo not drawn), the Potency is reported as inconclusive: 18.5 µM [inhibitor, single point]. For `CC1CCCN(c2nc3ccccc3nc2C(C#N)C(=O)OC2CCCCC2)C1` (stereo not drawn), the Potency was inconclusive: 11.7 µM [inhibitor, single point].

Source: PubChem BioAssay AID504834 (National Center for Advancing Translational Sciences (NCATS), 2011)
On the % scale 0 is the no-effect control and ±100 the full control effect; potency means the concentration at half of the fitted maximal effect.
